Test results from PubChem BioAssay AID2417 (National Center for Advancing Translational Sciences (NCATS), 2010).
About 4,300 (3.1%) of roughly 140,000 compounds were called active. This list was built around the results that the source calls inconclusive (neither active nor inactive); the mix of calls is not that of the screen.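 How the source made its calls: active means readout at or below -70, meaning at least 70% loss of cells showing the perinucleolar compartment, a nuclear body marking cancer cells; inconclusive means readout between -30 and a set limit; inactive means the rest.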

Assay: High Content Assay for Compounds that inhibit the Assembly of the Perinucleolar Compartment;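 further: plate controls were DMSO wells for no effect and camptothecin positive control wells for full effect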
Settings: PC3M PTB-GFP, PNC prevalence imaging, 16 h; at 10 µM; hits give low values
Method in brief: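 Compounds are pinned in duplicate onto adhered PC3M cells stably expressing GFP-tagged PTB and incubated 16 h at 37 C. Cells are then fixed, nuclei stained with Hoechst, and PNC-positive cells counted.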
In the case of Cc1c(NC(=O)CN2C(=O)c3cccc4cccc2c34)c(=O)n(-c2ccccc2)n1C, the activity change (PNC), negative = inhibition was inactive: -14.4%.
With COc1ccccc1NS(=O)(=O)c1ccc(NC(=O)c2nc3nc(C)cc(C(F)F)n3n2)cc1 the activity change (PNC), negative = inhibition was inactive: 16.8%.
For CCCc1nc2sc3c(c2c(=O)n1NC(=O)CCC(=O)O)CCCC3, the activity change (PNC), negative = inhibition was inconclusive: -31.2%.
With COc1cccc(-c2cc(C(=O)NCc3ccc(Cl)cc3)no2)c1 the activity change (PNC), negative = inhibition was inconclusive: -65.4%.
With O=C(NCCc1ccccc1)c1cc2ncc(Br)cn2n1 the activity change (PNC), negative = inhibition was inconclusive: -37.8%.
In the case of Cc1c(N=C2SCC(=O)N2/N=C/c2ccccc2Cl)c(=O)n(-c2ccccc2)n1C, the activity change (PNC), negative = inhibition was inactive: -14.1%.
With Cc1cccc(NC(=O)C2CC(=O)OC23CCCC3)c1 (centres undefined) the activity change (PNC), negative = inhibition was active: -100%.
For Cc1c(NC(=S)N/N=C/c2cccc(O)c2)c(=O)n(-c2ccccc2)n1C, the activity change (PNC), negative = inhibition was inconclusive: -52.6%.
With COc1ccc(NC(=O)c2ccc3c(c2)C(=O)N(Cc2cccnc2)C3=O)cc1 the activity change (PNC), negative = inhibition was inconclusive: -69.5%.
With CC(=O)N1CCc2cc(Br)cc(S(=O)(=O)NCc3ccccn3)c21 the activity change (PNC), negative = inhibition was inconclusive: -37.1%.
With O=[N+]([O-])c1cccc2ccc(/C=C/c3ccc(F)cc3)nc12 the activity change (PNC), negative = inhibition was active: -114%.
In the case of Cc1ccc(NCc2nnc(SCC(=O)c3ccccc3)n2Cc2ccco2)c(C)c1, the activity change (PNC), negative = inhibition was inconclusive: -59%.
With O=c1[nH]c2c(s1)C(c1ccco1)C1C3CCC(C3)C1S2 (centres undefined) the activity change (PNC), negative = inhibition was inconclusive: -47.9%.
With CCOCCCNC(=O)c1ccc(CS(=O)(=O)Cc2cccc(C)c2)o1 the activity change (PNC), negative = inhibition was inactive: 34.2%.
For O/N=C1\CCCC\C1=C/c1ccccc1, the activity change (PNC), negative = inhibition was inconclusive: -73.6%.
With COc1ccccc1NC(=O)C(=O)NNC(=O)c1ccco1 the activity change (PNC), negative = inhibition was inconclusive: -31.9%.
In the case of Cc1ccc(CCNC(=O)C2CC(c3ccccc3[N+](=O)[O-])=NO2)cc1 (centres undefined), the activity change (PNC), negative = inhibition was inconclusive: -59.5%.
With Cc1[nH]c2c(C)cccc2c1CCNS(=O)(=O)c1cccc([N+](=O)[O-])c1 the activity change (PNC), negative = inhibition was inconclusive: -42%.
In the case of CC1=NN(C(=O)c2ccc(Cn3cc([N+](=O)[O-])cn3)cc2)C(O)(C(F)(F)F)C1 (centres undefined), the activity change (PNC), negative = inhibition was inconclusive: -33.6%.
For Cc1cccc(CN2CCC(CNC(=O)C3CCCN(S(=O)(=O)c4cnc[nH]4)C3)CC2)c1 (centres undefined), the activity change (PNC), negative = inhibition was inconclusive: -68.2%.
In the case of COc1ccc2nc(NC(=O)C3CCN(S(=O)(=O)c4cccs4)CC3)sc2c1, the activity change (PNC), negative = inhibition was inconclusive: -30.6%.
For CC1CCN(C(=O)CSc2nnc(Cc3cc(=O)[nH]c(=O)[nH]3)n2-c2ccc(Cl)cc2)CC1, the activity change (PNC), negative = inhibition was inactive: -5.52%.
In the case of Cn1[nH]c(=O)c(Cl)c(Cl)c1=O, the activity change (PNC), negative = inhibition was inconclusive: -39.4%.
In the case of Clc1ccc(Nc2nc(-c3cccs3)cs2)nc1, the activity change (PNC), negative = inhibition was inconclusive: -43.1%.
